Results are given in words; binding and its absence hold for the method and conditions named. In cells and extracts the contact can be indirect. Some results given as binding are weak or reduced against the parent protein; the word gives no strength.
What was measured:
[1] = target: p75 (p75 TNF-R expressed in transfected HeLa cells) (UniProt P20333); experiment: coprecipitation from transfected HeLa cells
[2] = target: p75 (p75 TNF-R expressed in transfected HeLa cells) (UniProt P20333); experiment: coprecipitation (coIP) with p75 from transfected HeLa cells
[3] = target: GST-p55IC (glutathione S-transferase fusion with full-length p55-IC) (human) (UniProt P19438); experiment: in vitro pull-down: 35S-labelled protein from HeLa lysate on GST fusion on glutathione-agarose beads, SDS-PAGE, autoradiography
[4] = target: GST-p55IC345 (GST fusion with p55-IC C-terminally truncated up to amino acid 345) (human) (UniProt P19438); experiment: as above

By UniProt entry, the sequences of proteins in these tests, tags left out. Where a name states a change or a piece, a line headed by the entry shows the natural chain unless it says otherwise. Residues count along the entry.
UniProt P20333, residues 23-461: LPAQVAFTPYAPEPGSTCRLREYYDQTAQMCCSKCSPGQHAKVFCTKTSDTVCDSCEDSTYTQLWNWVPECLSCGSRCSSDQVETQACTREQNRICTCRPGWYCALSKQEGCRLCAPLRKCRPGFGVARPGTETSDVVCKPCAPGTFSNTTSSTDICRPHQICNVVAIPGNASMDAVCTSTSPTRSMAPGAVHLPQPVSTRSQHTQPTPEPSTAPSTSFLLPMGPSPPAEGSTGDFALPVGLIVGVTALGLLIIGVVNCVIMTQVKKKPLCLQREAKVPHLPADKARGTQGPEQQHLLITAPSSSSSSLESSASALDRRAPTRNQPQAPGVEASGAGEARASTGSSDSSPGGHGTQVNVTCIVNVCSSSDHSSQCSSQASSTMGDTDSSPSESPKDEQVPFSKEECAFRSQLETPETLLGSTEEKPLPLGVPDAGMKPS
UniProt P19438: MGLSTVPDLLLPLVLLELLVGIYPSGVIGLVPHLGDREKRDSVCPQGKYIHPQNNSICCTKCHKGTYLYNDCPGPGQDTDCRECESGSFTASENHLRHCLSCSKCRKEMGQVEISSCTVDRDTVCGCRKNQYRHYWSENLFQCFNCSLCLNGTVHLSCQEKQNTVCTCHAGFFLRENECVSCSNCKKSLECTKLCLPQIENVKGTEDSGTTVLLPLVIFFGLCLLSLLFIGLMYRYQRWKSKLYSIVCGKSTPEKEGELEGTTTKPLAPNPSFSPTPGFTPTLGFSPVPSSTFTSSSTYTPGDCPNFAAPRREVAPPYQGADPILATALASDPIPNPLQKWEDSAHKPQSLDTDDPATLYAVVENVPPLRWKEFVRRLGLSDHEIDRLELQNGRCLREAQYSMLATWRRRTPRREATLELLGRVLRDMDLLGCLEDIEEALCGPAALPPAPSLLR
UniProt Q9NQT4: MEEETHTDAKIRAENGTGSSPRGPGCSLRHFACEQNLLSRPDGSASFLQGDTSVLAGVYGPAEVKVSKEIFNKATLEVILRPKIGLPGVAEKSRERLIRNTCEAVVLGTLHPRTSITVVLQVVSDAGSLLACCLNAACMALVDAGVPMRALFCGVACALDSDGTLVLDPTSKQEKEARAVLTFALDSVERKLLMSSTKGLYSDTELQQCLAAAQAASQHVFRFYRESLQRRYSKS
UniProt Q13200: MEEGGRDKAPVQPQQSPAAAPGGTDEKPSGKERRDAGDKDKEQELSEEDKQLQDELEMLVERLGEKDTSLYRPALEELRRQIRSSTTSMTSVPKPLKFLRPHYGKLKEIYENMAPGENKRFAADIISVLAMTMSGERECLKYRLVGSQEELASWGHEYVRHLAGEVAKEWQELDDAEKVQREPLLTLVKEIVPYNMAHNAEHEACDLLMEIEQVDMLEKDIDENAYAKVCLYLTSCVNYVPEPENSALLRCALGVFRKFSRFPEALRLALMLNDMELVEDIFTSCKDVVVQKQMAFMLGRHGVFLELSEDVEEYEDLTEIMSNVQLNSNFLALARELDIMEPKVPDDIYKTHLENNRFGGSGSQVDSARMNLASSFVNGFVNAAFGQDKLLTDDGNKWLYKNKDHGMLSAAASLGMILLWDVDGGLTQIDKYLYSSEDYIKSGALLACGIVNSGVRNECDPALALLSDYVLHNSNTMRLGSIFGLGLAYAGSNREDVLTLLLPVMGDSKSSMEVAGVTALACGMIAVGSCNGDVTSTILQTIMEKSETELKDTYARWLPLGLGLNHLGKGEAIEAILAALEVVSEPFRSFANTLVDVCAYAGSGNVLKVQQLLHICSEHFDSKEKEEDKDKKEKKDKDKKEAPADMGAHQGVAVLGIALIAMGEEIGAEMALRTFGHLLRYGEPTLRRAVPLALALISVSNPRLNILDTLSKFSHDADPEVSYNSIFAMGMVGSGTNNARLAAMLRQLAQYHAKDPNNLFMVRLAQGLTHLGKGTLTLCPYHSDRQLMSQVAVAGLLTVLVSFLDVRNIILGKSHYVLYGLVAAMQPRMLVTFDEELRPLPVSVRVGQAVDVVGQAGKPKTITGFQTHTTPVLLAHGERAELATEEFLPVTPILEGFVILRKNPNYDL

binding [1]	binding [2]	binding [3]	binding [4]	Substance
binds	binds	–	–	E15 (p75IC-binding protein encoded by clone E15) (from UniProt Q9NQT4 1-235)
–	–	binds	binds	FLAG-55.11 (residues 309-900 of 55.11 fused at the N terminus with the FLAG octapeptide) (from UniProt Q13200 318-899)
–	–	binds	binds	full-length 55.11 protein (55.11-full) (from UniProt Q13200 11-899)

From US20070232520A1
